Assay results published in the supplement of paper PMC4635364.
Structures can show the parent of a compound that is named as a salt. The list shows a part of the results. Single values are uncertain here, since repeats match poorly.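 Cells: ReNCell VM human fetal ventral-midbrain neural progenitors, differentiated mitogen-free. Blinded raters compared doublecortin-stained (early neurons) or tyrosine hydroxylase-stained (dopaminergic neurons) images with untreated wells, where 0 means no change. After repeats and both raters were averaged, compounds scoring 2 or above became hits for retesting.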

system: ReNCell VM; test: neuronal differentiation score (DCX+ cell fraction vs untreated, manual image score) (score (-3 to 3)); higher = more neuronal differentiation; conditions: library: Prestwick; 2 uM; 2 weeks

Neuronal differentiation score, inactive:
O=C(O)/C=C/c1ccc(Cn2ccnc2)cc1 [Ozagrel hydrochloride] 0
CCN(CC)CCCC(C)Nc1ccnc2cc(Cl)ccc12 (stereo not drawn) [Chloroquine diphosphate] 0
CCOc1ccccc1OC(c1ccccc1)C1CNCCO1 (stereo not drawn) [Reboxetine mesylate] 0
CN(C)CCCO[C@@H]1[C@H]2OC(C)(C)O[C@H]2O[C@@H]1[C@H](O)CO [Amiprilose hydrochloride] 0
CC[C@]12CCCN3CCc4c(n(c5ccccc45)C(=O)C1)[C@@H]32 [Eburnamonine (-)] 0
CC(COc1ccccc1)N(CCCl)Cc1ccccc1 (stereo not drawn) [Phenoxybenzamine hydrochloride] 0
O=C1c2ccccc2S(=O)(=O)N1CCCCN1CCN(c2ncccn2)CC1 [Ipsapirone] 0
Nc1nc(N)c2nc(-c3ccccc3)c(N)nc2n1 [Triamterene] 0
COc1cc2nc(N3CCN(C(=O)C4COc5ccccc5O4)CC3)nc(N)c2cc1OC (stereo not drawn) [Doxazosin mesylate] 0
COc1cc(Cc2cnc(N)nc2N)cc(OC)c1OC [Trimethoprim] 0
CN1CC2c3ccccc3Oc3ccc(Cl)cc3C2C1 (stereo not drawn) [Asenapine maleate] 0
CC[C@H](C)C(=O)O[C@H]1C[C@@H](C)C=C2C=C[C@H](C)[C@H](CC[C@@H]3C[C@@H](O)CC(=O)O3)[C@H]21 [Lovastatin] 0
OCCN1CCN(CCCN2c3ccccc3C=Cc3ccccc32)CC1 [Opipramol dihydrochloride] 0

Ordered by molecular weight (high to low): part of the list above
Neuronal differentiation score, inactive:
COc1cc2nc(N3CCN(C(=O)C4COc5ccccc5O4)CC3)nc(N)c2cc1OC (stereo not drawn) [Doxazosin mesylate] 0
CCN(CC)CCCC(C)Nc1ccnc2cc(Cl)ccc12 (stereo not drawn) [Chloroquine diphosphate] 0
Nc1nc(N)c2nc(-c3ccccc3)c(N)nc2n1 [Triamterene] 0
